In PubChem BioAssay AID977625 (Broad Institute, 2014):
Inconclusive means that the source gave no clear call. Such entries were picked first, then a sample of the others. Calls of active or inactive are those of the source.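 Rule for the calls: active = red signal from normal-ribosome E. coli cut at least twice as much as green humanized-ribosome signal, growth cut under 30%; inconclusive = no clear call, values can overlap the other calls; inactive = the rest.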

experiment: selective ribosome h34 site antibacterial activity – h34 mutant GFP vs wild-type RFP, cherry-pick, OD600, dose response (AID 977625); details: E. coli h34-humanized GFP strain growth, fluorescence, 24 h; at 50 µM (top of the series) unless noted

Activity change, negative = inhibition, inactive:
COc1cc2c(cc1[N+](=O)[O-])-c1ccc([N+](=O)[O-])cc1C2 -48.1
Cc1ccc(S(=O)(=O)N2CC[C@H]3[C@H](CO)Nc4ccc(Br)cc4[C@H]32)cc1 7.09
COc1ccc(Cn2c(-c3ccc(Cl)cc3)c[n+]3ccccc23)cc1 30.2
COc1cccc(C(=O)Nc2cc(C)nn2-c2ccccc2)c1OC 18.9
Cc1noc(C)c1NC(=O)Nc1ccc2c(c1)C(=O)N([C@H](C)CO)C[C@@H](C)[C@@H](CN(C)C(=O)Nc1ccc3c(c1)OCO3)OCCCC[C@@H](C)O2 0.093

Activity change, negative = inhibition, inconclusive:
C[C@@H]1CCCCO[C@H](CN(C)CC2CC2)[C@H](C)CN([C@@H](C)CO)C(=O)c2cc(NC(=O)Nc3cccc4ccccc34)ccc2O1 -99.2
C=CCNC(=O)c1ccccc1NC(=O)c1ccc(Cl)c(S(=O)(=O)Nc2cccc(C)c2C)c1 -85.4
Cc1c(C(=O)O)sc2nc(CSc3ncc(C(F)(F)F)cc3Cl)[nH]c(=O)c12 -63.8 [at 26 µM]
